Reference: ChEMBL document CHEMBL1201862, “PubChem BioAssay data set” (2004)

Chains of the proteins cited; added tags and fusions are not shown.
UniProt P11712, whole entry: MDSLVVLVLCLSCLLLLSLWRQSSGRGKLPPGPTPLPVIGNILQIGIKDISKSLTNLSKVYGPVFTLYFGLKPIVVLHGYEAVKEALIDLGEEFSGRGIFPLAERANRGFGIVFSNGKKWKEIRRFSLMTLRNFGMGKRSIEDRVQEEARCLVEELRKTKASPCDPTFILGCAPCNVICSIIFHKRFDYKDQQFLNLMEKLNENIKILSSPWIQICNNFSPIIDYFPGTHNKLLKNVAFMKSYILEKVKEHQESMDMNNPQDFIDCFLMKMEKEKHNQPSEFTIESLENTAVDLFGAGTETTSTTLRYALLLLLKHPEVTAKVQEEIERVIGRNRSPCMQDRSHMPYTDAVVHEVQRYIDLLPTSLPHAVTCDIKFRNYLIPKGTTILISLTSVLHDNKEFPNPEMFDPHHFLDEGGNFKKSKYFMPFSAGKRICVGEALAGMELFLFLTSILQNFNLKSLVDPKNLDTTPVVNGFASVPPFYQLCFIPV

Biological target: Cytochrome P450 2C9 (Homo sapiens, UniProt P11712)

- AC50: inconclusive
Compound: CC12CC[C@@H]3c4ccc(OS(=O)(=O)O)cc4CC[C@H]3C1CCC2=O (stereo partly specified) [ESTRONE SULFURIC ACID]
